Data reported in patent publication US11980613B2, “Methods for reversing HIV latency using BAF complex modulating compounds” (priority 2018, dated 2024).

System: mESCs
Experiment: RNA-Seq of compound treated mESCs compared with Brg1 and Arid1a knockout
Type: cell-based, mouse
Conditions: 30 μM, 18 h

CO[C@H]1CN(C)C(=O)c2cc(NC(=O)NC(C)C)ccc2OC[C@H](C)N(Cc2ccc(-c3ccccn3)cc2)C[C@@H]1C [BRD-K98645985]
differentially regulated genes, down: 1916 genes
differentially regulated genes, up: 1518 genes
differentially regulated genes (1.5-fold change, P<0.05): 3534 genes
